Screen size: about 580,000 compounds; about 6,100 (1.1%) were called active. Inconclusive means that the source gave no clear call. Such entries were picked first, then a sample of the others. Calls come from the whole dose curve; as a rule, active = well fitted inhibition curve with a large enough effect; inconclusive = small, poorly fitted or top-dose-only effect, or another doubt; inactive = no such curve, though single readings can be large or run the other way. Potencies of inconclusive entries are doubtful fits and often do not repeat.
Each compound was assayed against Polyunsaturated fatty acid lipoxygenase ALOX12 (Homo sapiens) (UniProt P18054) (assay: Primary qHTS assay for inhibitors of human arachidonate 12S-lipoxygenase (ALOX12): Round 2). Details: purified 12hLO, xylenol orange hydroperoxide absorbance; series mostly up to 108 µM.
Summary of the method: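 Purified human 12hLO at 150 nM in 25 mM Hepes, 0.01% Triton X-100, pH 7.0, preincubated 15 min at room temperature with compound. Reaction started with 40 uM arachidonic acid, 30 min at room temperature. Hydroperoxide measured by Fe-xylenol orange, 573/405 nm absorbance ratio.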
Potency is the fitted concentration of half-maximal effect.

Chains of the proteins cited; added tags and fusions are not shown. Lines headed by an entry give the natural chain unless they say otherwise; changes in a name come on top.
UniProt P18054: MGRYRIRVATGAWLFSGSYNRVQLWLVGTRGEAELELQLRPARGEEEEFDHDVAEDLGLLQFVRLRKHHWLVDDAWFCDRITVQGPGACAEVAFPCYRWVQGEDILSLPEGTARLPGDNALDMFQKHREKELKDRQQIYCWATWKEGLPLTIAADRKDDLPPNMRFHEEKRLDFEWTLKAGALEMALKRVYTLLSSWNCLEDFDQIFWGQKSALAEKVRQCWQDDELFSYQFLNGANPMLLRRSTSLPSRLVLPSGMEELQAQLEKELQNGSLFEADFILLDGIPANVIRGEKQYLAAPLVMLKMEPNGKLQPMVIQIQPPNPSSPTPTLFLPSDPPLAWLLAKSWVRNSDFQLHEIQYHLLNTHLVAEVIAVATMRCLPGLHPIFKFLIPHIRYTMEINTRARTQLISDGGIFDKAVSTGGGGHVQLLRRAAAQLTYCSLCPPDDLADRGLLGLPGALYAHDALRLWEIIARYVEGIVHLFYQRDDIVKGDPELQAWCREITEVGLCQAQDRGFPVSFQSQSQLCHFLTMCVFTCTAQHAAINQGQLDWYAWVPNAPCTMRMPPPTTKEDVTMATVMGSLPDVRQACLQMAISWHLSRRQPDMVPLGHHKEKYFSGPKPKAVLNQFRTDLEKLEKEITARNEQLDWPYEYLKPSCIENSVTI

Structure (SMILES)	Potency
O=C(/C=C/c1ccccc1Cl)Nc1nc(-c2cccs2)ns1	inactive
Cc1ccc(CSCC(=O)N(C)CC(=O)Nc2ccc(Br)cc2C)cc1	inconclusive: 35.5 µM [inhibitor, partial curve, poor fit]
C[C@H](CO)N1C[C@H](C)[C@H](CN(C)Cc2cccc(F)c2)Oc2ncc(C3=CCCC3)cc2C1=O	inconclusive: 50.1 µM [inhibitor, partial curve, poor fit]
COc1ccc(CNC(=O)C(F)(F)F)cc1	inactive
O=C1CSc2ccc(C(=O)Nc3cccc(COC(=O)c4ccc5c(c4)NC(=O)CS5)c3)cc2N1	inactive
CC(C)NCc1ccc(-c2ccccc2)o1	inconclusive: 50.1 µM [inhibitor, partial curve, poor fit]
Cc1ccc2cc3cc(C(=O)NC4CC4)oc3nc2c1	inactive
Cc1ccccc1C1NC(=O)c2c(sc3c2CCN(Cc2ccccc2)C3)N1 (configuration not stated)	inconclusive: 35.5 µM [inhibitor, partial curve, poor fit]
CCN1CCN(C(=O)Nc2cccc(C(F)(F)F)c2)CC1	inactive
CCCn1cnc2c1CN(S(C)(=O)=O)[C@H](C(=O)OC)C2	inconclusive: 12.6 µM [inhibitor, full curve, poor fit]
Cc1ccc(-c2noc(CCCOc3ccc(Cl)cc3Cl)n2)cc1	inconclusive: 126 µM [inhibitor, partial curve, poor fit]
O=C(Cn1[nH]c(=O)c2ccccc2c1=O)N1CC=C(c2ccccc2)CC1	inconclusive: 100 µM [inhibitor, single point]
CCc1nc2ccc(C(=O)NCc3ccc(OC)cc3)cn2c1N(C)CCC(C)C	inconclusive: 35.5 µM [inhibitor, partial curve, poor fit]
Cc1cccc(Cn2nc(C(C)(C)C)cc2C(=O)Nc2ccc(F)cc2)c1	inconclusive: 112 µM [inhibitor, partial curve, poor fit]
Cc1ccc(NC(=O)N2CCCC(Cn3c(C4CC4)nc4cccnc43)C2)cc1F (configuration not stated)	inactive
COc1cccc(C(=O)Nc2ccc3oc(-c4cccc5c(Br)cccc45)nc3c2)c1	inactive
Cc1cc(C)n(-c2nc(NCC(C)O)c3c4c(sc3n2)CCCC4)n1 (configuration not stated)	inconclusive: 56.2 µM [inhibitor, partial curve, poor fit]
CCOC(=O)N1CCC(NS(=O)(=O)c2ccc3c(c2)oc(=O)n3C)CC1	inconclusive: 35.5 µM [inhibitor, single point]
COc1ccccc1N1CCN(C(=O)c2cnn(-c3ccc(F)cc3F)c2C2CCNCC2)CC1	inconclusive: 50.1 µM [inhibitor, partial curve, poor fit]
CN(C)Cc1ccccc1-c1cccc2nccn12	inconclusive: 39.8 µM [inhibitor, partial curve, poor fit]
N#C/C(=C\c1ccc2c(c1)OCO2)C(N)=S	inactive
CCCOC(=O)c1ccc(-c2c(C)noc2-c2ccc(OC)cc2O)o1	inconclusive: 112 µM [inhibitor, single point]
O=C(CSc1nc2ccccc2o1)OCC(=O)c1ccc(Cl)cc1	inconclusive: 44.7 µM [inhibitor, partial curve, poor fit]
CCOC(=O)C1NN=C(C(=O)c2ccccc2)C1c1ccccc1 (configuration not stated)	inactive

Reformatted: entries from further up
Structure (SMILES) | Potency
O=C(/C=C/c1ccccc1Cl)Nc1nc(-c2cccs2)ns1 | inactive
O=C1CSc2ccc(C(=O)Nc3cccc(COC(=O)c4ccc5c(c4)NC(=O)CS5)c3)cc2N1 | inactive
CC(C)NCc1ccc(-c2ccccc2)o1 | inconclusive: 50.1 µM [inhibitor, partial curve, poor fit]
Cc1cc(C)n(-c2nc(NCC(C)O)c3c4c(sc3n2)CCCC4)n1 (configuration not stated) | inconclusive: 56.2 µM [inhibitor, partial curve, poor fit]

Later entries.

Structure (SMILES)	Potency
CCc1ccccc1NC(=O)c1cc2c(s1)CN(C(C)C)C2	inactive
CCOC(=O)c1sc(=S)n(-c2ccccc2)c1N	inactive
COc1cc(/C=C2/C(=N)N3C=CSC3=NC2=O)ccc1OCCOc1ccc(NC(C)=O)cc1	inactive
CCN(CC)c1ccc(Nc2nc(Cl)ncc2Br)cc1	inconclusive: 126 µM [inhibitor, single point]
COC(=O)N1C(=O)[C@@](c2ccccc2)(C2CCCCC2)N1C(=O)OC	inactive
O=C(/C=C/c1c(F)cccc1Cl)N1CCc2ccccc2C1	active: 5.62 µM
CN(C)S(=O)(=O)c1ccc(NC(=O)CN2CCN(c3ccc(O)cc3)CC2)cc1	inconclusive: 3.16 µM [inhibitor, full curve, poor fit]
COc1ccc(-n2c(=O)c(-c3cccs3)nc3cnc(Oc4ccccc4)nc32)cc1	inconclusive: 112 µM [inhibitor, partial curve, poor fit]
Cc1ncc(-c2ccc(S(=O)(=O)Nc3cccc(Cl)c3C)cc2)o1	inconclusive: 100 µM [inhibitor, single point]
CCOC(=O)C1CCCN(c2c(NCC3CCCO3)c(=O)c2=O)C1 (configuration not stated)	inconclusive: 3.98 µM [inhibitor, full curve]
COc1ccc(N2CCN(C(=O)CCc3c(C)nc4cc(-c5ccc(OC)cc5OC)nn4c3C)CC2)cc1	inactive
CC1Cc2cc(/C(O)=C3/C(=O)C(=O)N(CCCn4ccnc4)C3c3ccc(F)cc3)ccc2O1 (configuration not stated)	inactive
CN1CCN(c2nc3ccccn3c(=O)c2/C=C(\C#N)S(=O)(=O)c2ccc(Cl)cc2)CC1	inconclusive: 0.316 µM [inhibitor, full curve, poor fit]
O=C(NC(C1CC1)C1CC1)c1cc(F)c(Cl)cc1Cl	inconclusive: 50.1 µM [inhibitor, partial curve, poor fit]
CC(=O)NC1(C)CCCN(Cc2cccc(-c3ccccc3)c2)C1 (configuration not stated)	inactive
C=CCc1cc(Cl)ccc1OCCCNC(C)CC (configuration not stated)	inconclusive: 39.8 µM [inhibitor, partial curve, poor fit]
COc1ccc(-n2ncc(C(=O)NC3CC3)c2C2CCN(C(=O)OC(C)(C)C)CC2)cc1	inactive
Fc1cccc(Cc2c(-c3ccco3)nc3c4ccccc4ccn23)c1	inactive
C=C1SC(Nc2c(C)cc(C)cc2C)=NC12CCCCC2	inconclusive: 112 µM [inhibitor, single point]
Cc1ccc(C(=O)NCCSc2c(C)[nH]c3ccccc23)cc1[N+](=O)[O-]	inconclusive: 50.1 µM [inhibitor, partial curve, poor fit]
O=C(c1ccccc1)c1nn(-c2ccc(Cl)cc2)c(=O)cc1C(F)(F)F	inactive
CC/C=C(/C)C(=O)NCc1ccco1	inactive
CCN1C(=O)CCN(Cc2cccc(OC(F)(F)F)c2)CC12CCOCC2	inactive
CCC(=O)N1CCc2c(sc3ncnc(NCc4ccccc4)c23)C1	inactive

Structure (SMILES)	Potency
Cc1ccnc(SCc2nc3cc(NS(=O)(=O)c4ccc(Cl)cc4)ccc3n2C)n1	inactive
CCSc1nnc(-c2nn(Cc3ccccc3)c(=O)c3ccccc23)o1	inactive
Cc1cc(C(=O)COc2ccc3ccc(=O)oc3c2)c(C)n1C1CC1	inconclusive: 100 µM [inhibitor, single point]
CC(C(=O)N1CCc2ccccc2C1)N(C)Cc1c(F)cccc1Cl (configuration not stated)	inconclusive: 70.8 µM [inhibitor, partial curve, poor fit]
N#Cc1ccccc1Sc1ccccc1N	inactive
O=C(COc1ccc(Cl)cc1)Nc1ccccc1OCc1cc(=O)n2ccccc2n1	inconclusive: 141 µM [inhibitor, partial curve, poor fit]
O=C(/C=C/c1ccc(Cl)cc1Cl)c1ccc(O)cc1	inconclusive: 63.1 µM [inhibitor, partial curve, poor fit]
CCCCc1ccc(C(Nc2ccc3nnnn3n2)c2cccs2)cc1 (configuration not stated)	inconclusive: 8.91 µM [inhibitor, partial curve, poor fit]
CCc1c(C(=O)NC(C)C)csc1C	inactive
Cc1ccccc1/C=N/NC(=O)c1cccnc1	inconclusive: 0.0794 µM [inhibitor, full curve, poor fit]
CC(=O)NC(c1cccc(F)c1)c1nc(-c2ccoc2)cs1 (configuration not stated)	inconclusive: 8.91 µM [inhibitor, full curve, poor fit]
CCc1ccc(NC(=O)C(CC)n2c(=O)c(-c3ccccc3NC(C)=O)nc3ccccc32)cc1 (configuration not stated)	inconclusive: 100 µM [inhibitor, partial curve, poor fit]
CC(C)CC(=O)NCC12CC3CC(CC(C3)C1)C2	inactive
O=C(CSc1nnc(-c2ccco2)n1Cc1ccco1)NCc1ccccc1	inactive
O=C(NCC(c1ccco1)N1CCc2ccccc21)c1ccccc1Br (configuration not stated)	inconclusive: 141 µM [inhibitor, partial curve, poor fit]
CN(C)CC(O)c1cc2n(n1)CCCN(C(=O)c1cccc(N(C)C)c1)C2 (configuration not stated)	inactive
CCOc1ccc(NC(=O)CCCn2c(=O)c3cccn3c3ccccc32)cc1	inactive
Cc1ccc(NC(=O)c2ccccc2N2C(=O)C3C4C=CC(C5CC45)C3C2=O)cc1C (configuration not stated)	inconclusive: 56.2 µM [inhibitor, partial curve, poor fit]
COc1cccc(C(=O)c2cn(CC(=O)Nc3cccc(C)c3C)c3nc(C)ccc3c2=O)c1	inconclusive: 63.1 µM [inhibitor, partial curve, poor fit]
CCOC(=O)Cn1c(=O)oc2cc(S(=O)(=O)Nc3ccc(N(CC)CC)cc3C)ccc21	inconclusive: 35.5 µM [inhibitor, partial curve, poor fit]
COc1ccc(-n2c(Cn3nnc4ccccc43)n[nH]c2=S)cc1	inactive
COc1ccc(-c2nccn3cc(C(=O)O)nc23)cc1	inconclusive: 8.91 µM [inhibitor, partial curve, poor fit]
CC(=O)N(Cc1cc2cc(C)ccc2[nH]c1=O)C(C)C	inconclusive: 79.4 µM [inhibitor, partial curve, poor fit]
COC1CCCN(c2ccc(C(=O)N3CCC(N4CCOCC4)CC3)cn2)C1 (configuration not stated)	inactive

From PubChem BioAssay AID1671190 (National Center for Advancing Translational Sciences (NCATS), 2021)
